Assay results published in US9346854B2, “Anti-inflammatory peptides and use thereof” (Yeda Research and Development Co. Ltd., priority 2012, dated 2016).
No end group written: not given here.

Experiment: LPS binding assay with NBD-labeled peptides
Conditions: NBD-labeled peptide, indication of final oligomerization state
Procedure: NBD-labeled peptides (50 μl, 2 μM, PBS^−/− 2% DMSO) were added to different concentrations of LPS (50 μl PBS^−/−) in a opaque black 96 well plate. After 10 minutes of incubation at room temperature, the fluorescence was measured using an excitation of 467 nm and emission of 530 nm. The data were plotted and Kd and Bmax values obtained using NLLSQ analysis.
“KKALALALALALAKK-NH2 [K2(AL)5AK2, KKALALALALALAKK]” gave a Bmax of 4517 A.U. With “KALALALKALALKALALALK-NH2 [K(AL)3K(AL)2K(AL)3K]” the Bmax was 1810 A.U. ALALALALALALALALALKK-NH2 [(AL)9K2] gave a Bmax of 312 A.U. In the case of KKALALALALALALALALKK [4D-K2(AL)8K2], the Bmax is reported as 4678 A.U.
